PubChem BioAssay AID743458 | Peter MacCallum Cancer Centre – 2014

- Test: 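Find knock-downs that make vorinostat-resistant colon cancer cells sensitive again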 (follow-up of hits)
- Cell system: human HCT116-VR colon cancer cells made resistant to vorinostat
- Reagents: single siRNA or pool against human genes, 25 nM per single siRNA
- Timing: about 72 h after transfection, including 24 h of drug
- Challenge: vorinostat, 2.5 µM final, for 24 h
- Read-out: 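Live-cell fluorescent viability and luminescent caspase 3/7 activity after vorinostat treatment, background subtracted, mean of duplicate plates, as fold change over mock-transfected wells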
- Reading the numbers: viability relative to mock: higher = more living cells than mock; caspase activity relative to mock: higher = more apoptosis than mock
- Call rule: 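Active means a reduced-viability or caspase-activation class, anything else inactive; classes could only be given to wells that looked healthy when left untreated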
Shown is a random part of about 1,800 reagents. 732 of all reagents (41%) count as active. 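Calls are per siRNA reagent; a gene was deemed confirmed only if most of its four siRNAs scored.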 Reagents against one gene are numbered here.

The opening 3 entries, ahead of the listing:
Target gene | reagent | viability relative to mock | caspase activity relative to mock | viability hit class | caspase hit class | call
PALM | 1 | 0.94 | 1.22 | no change | no change | inactive
PALM | 2 | 0.88 | 1.12 | no change | no change | inactive
PALM | 3 | 0.68 | 3.66 | no change | caspase activation | active

Results, from the first entry:
Target gene | reagent | viability relative to mock | caspase activity relative to mock | viability hit class | caspase hit class | call
PALM | 1 | 0.94 | 1.22 | no change | no change | inactive
PALM | 2 | 0.88 | 1.12 | no change | no change | inactive
PALM | 3 | 0.68 | 3.66 | no change | caspase activation | active
PALM | 4 | 0.39 | 4.56 | reduced viability | caspase activation | active
STK11 | 1 | 0.68 | 1.12 | no change | no change | inactive
STK11 | 2 | 0.65 | 2.86 | no change | caspase activation | active
STK11 | 3 | 0.6 | 2.13 | no change | no change | inactive
STK11 | 4 | 0.9 | 2.13 | no change | no change | inactive
MXD1 | 1 | 0.82 | 1.37 | no change | no change | inactive
MXD1 | 2 | 0.78 | 1.61 | no change | no change | inactive
MXD1 | 3 | 0.62 | 2.21 | no change | no change | inactive
MXD1 | 4 | 0.38 | 3.06 | reduced viability | caspase activation | active
PUF60 | 1 | 0.6 | 5.48 | no change | caspase activation | active
PUF60 | 2 | 0.52 | 4.8 | reduced viability | caspase activation | active
PUF60 | 3 | 0.7 | 5.32 | no change | caspase activation | active
PUF60 | 4 | 1 | 2.04 | no change | no change | inactive
PUF60 | 5 | 0.7 | 6.27 | no change | caspase activation | active
ASH2L | 1 | 0.81 | 1.27 | no change | no change | inactive
ASH2L | 2 | 0.73 | 4.06 | no change | caspase activation | active
ASH2L | 3 | 0.74 | 1.52 | no change | no change | inactive
ASH2L | 4 | 0.69 | 2.85 | no change | caspase activation | active
RTKN | 1 | 0.66 | 4.03 | no change | caspase activation | active
RTKN | 2 | 0.6 | 2.82 | no change | caspase activation | active
RTKN | 3 | 0.8 | 1.17 | no change | no change | inactive
RTKN | 4 | 0.68 | 1.4 | no change | no change | inactive
